# According to PubChem BioAssay AID504444 (National Center for Advancing Translational Sciences (NCATS), 2011):
# In all, about 360,000 compounds went through this assay and about 7,500 (2.1%) were called active. Inconclusive results, whose numbers are uncertain, are shown with a selection of clear calls. Calls follow the shape of the dose curve; as a rule, active = well fitted inhibition curve with a large enough effect; inconclusive = small, poorly fitted or top-dose-only effect, or effect the other way; inactive = flat fitted curve, though single readings scatter. Potencies beside an inconclusive call are fits to weak or partial responses and may not hold up.
# Assay: Nrf2 qHTS screen for inhibitors; also: nearly all actives have a fitted effect of over 60% in size
# Conditions: A549 ARE-Fluc reporter, luciferase luminescence, 18-24 h; activity change, negative = inhibition: at 46 µM (top of the series)
# How it was run: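 Two sequential reads on A549 ARE_Fluc cells exposed to compound for 18-24 h: a CellTiter-Fluor fluorescence read for viability, then a luciferase luminescence read for Nrf2/ARE activity.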
# % is scaled to controls: 0 for no effect and ±100 for the full control effect; potency is read from the fitted curve at half-maximal effect.
SMILES,Potency,"activity change, negative = inhibition"
COc1ccc(C(=O)Nc2nnc(SCC(=O)Nc3ccc(NC(C)=O)cc3)s2)c(OC)c1,"inconclusive: 0.0058 µM [activator, full curve, poor fit]",–
Cc1cccc(OCC(=O)N/N=C/c2cc([N+](=O)[O-])ccc2N2CCOCC2)c1,"inconclusive: 16.4 µM [falling, partial curve, poor fit]",–
Cc1cc(NCc2ccccc2)n2ncc(-c3ccccc3)c2n1,"inconclusive: 2.06 µM [activator, full curve]",–
CC(Sc1nnc(-c2ccc(OC(F)F)cc2)n1N)C(=O)NCC1CCCO1 (stereo not drawn),–,inactive: 1.99%
CC(C)(C)OC(=O)N1CCCN(C(=O)Nc2ccc(OC(F)(F)F)cc2)CC1,"inconclusive: 23.1 µM [falling, single point]",–
Cc1nc(C)c(-c2ccc(SCC(=O)Nc3ccc(F)cc3F)nn2)s1,active: 20.6 µM,–
CC(C)(C)OC(=O)NCc1ccc(NC(=O)c2nc[nH]c2C(=O)N[C@@H](Cc2ccccc2)C(=O)OC(C)(C)C)cc1,"inconclusive: 1.64 µM [falling, partial curve, poor fit]",–
O=C(c1nc2nc(-c3ccc(Cl)cc3)cc(C(F)(F)F)n2n1)N1CCOCC1,–,inactive: -16.3%
Cc1ccc(S(=O)(=O)CCC(O)c2ccc(Cl)cc2)cc1 (stereo not drawn),–,inactive: 4.15%
Cc1ccc(C)c(S(=O)(=O)N2CCCOC2CNC(=O)C(=O)NCCc2ccccc2)c1 (stereo not drawn),"inconclusive: 5.8 µM [falling, partial curve, poor fit]",–
Cc1csc(SCc2nnc(-c3ccccc3Br)o2)n1,"inconclusive: 0.92 µM [activator, full curve]",–
CCN(CC)c1ccc(C(=C2C=CC(=[N+](CC)CC)C=C2)c2ccc(S(=O)(=O)O)cc2S(=O)(=O)[O-])cc1,"inconclusive: 23.1 µM [falling, single point]",–
Clc1ccccc1OCCn1nnc2ccccc21,"inconclusive: 4.11 µM [activator, full curve]",–
CCN(Cc1nc(-c2ccc(OC)cc2)no1)C(=O)c1ccc2c(c1)OCO2,"inconclusive: 29.1 µM [falling, single point]",–
O=c1c(-c2ccc(O)cc2)coc2cc(OC3OC(CO)C(O)C(O)C3O)cc(O)c12 (stereo not drawn),"inconclusive: 29.1 µM [activator, single point]",–
CCN1C(=O)/C(=C\C(=O)c2cccs2)c2cc(Br)ccc21,–,inactive: -4.21%
FC(F)(F)c1nc(N2CCCC2)ncc1-c1nnnn1-c1ccc(Cl)cc1,active: 13 µM,–
COc1cccc(C2c3c(ncn(-c4ccc(C(C)(C)C)cc4)c3=N)Oc3ccc4ccccc4c32)c1 (stereo not drawn),"inconclusive: 25.9 µM [falling, single point]",–
CCN(CC)S(=O)(=O)c1ccc(C(=O)Nc2cccc(C)c2)cc1,"inconclusive: 29.1 µM [falling, single point]",–
N#C/C(=C(/O)c1ccco1)c1nc2ccccc2[nH]1,"inconclusive: 1.46 µM [activator, full curve]",–
COc1ccccc1NC(=O)CSc1nc2ccccc2c(=O)n1C,"inconclusive: 29.1 µM [falling, single point]",–

SMILES,Potency,"activity change, negative = inhibition"
CC(NC(=O)Cn1nc(-c2ccccc2)ccc1=O)c1ccccc1 (stereo not drawn),"inconclusive: 0.82 µM [falling, full curve, poor fit]",–
O=C(/C=C/c1cccc(F)c1)N1CCN(c2ccccn2)CC1,"inconclusive: 25.9 µM [falling, single point]",–
CCc1ccc(CN2CCC(n3nccc3NC(=O)c3ccccc3C)CC2)cc1,"inconclusive: 20.6 µM [falling, single point]",–
CSc1ccccc1NC(=O)c1ccccn1,"inconclusive: 16.4 µM [activator, partial curve, poor fit]",–
Brc1ccc2nc(-c3c[nH]c4ccccc34)cn2c1,"inconclusive: 18.4 µM [activator, partial curve]",–
CCn1c(COc2ccc(Cl)cc2)nnc1SCc1nc2ccccc2[nH]1,"inconclusive: 18.4 µM [falling, single point]",–
CCc1ccc(C(CNc2nc(C(F)(F)F)nc3ccccc23)N(C)C)cc1 (stereo not drawn),"inconclusive: 18.4 µM [falling, partial curve, poor fit]",–
COc1cccc(C2NC(=O)c3sc(=S)n(-c4ccccc4)c3N2)c1 (stereo not drawn),"inconclusive: 23.1 µM [falling, single point]",–
COc1ccc(NC(=O)CCCc2ccccc2)cc1OC,"inconclusive: 4.61 µM [activator, partial curve]",–
CC(=O)Nc1ccc(NC(=O)CCCn2nc(C)c3sc4ccccc4c3c2=O)cc1,"inconclusive: 16.4 µM [falling, single point]",–
O=C1Oc2ccccc2C(=O)/C1=C/c1ccccc1O,"inconclusive: 16.4 µM [falling, single point]",–
O=S(=O)(NCCSc1ccccc1)c1ccc(F)cc1,"inconclusive: 29.1 µM [falling, single point]",–
CCn1cc(C(=O)N2CCN(c3ccc(C)cc3)C(C)C2)c(=O)c2cc(S(=O)(=O)N3CCCC3)ccc21 (stereo not drawn),"inconclusive: 13 µM [falling, single point]",–
O=C(N/N=C\c1cc(Br)ccc1O)c1ccc(S(=O)(=O)N2CCCCC2)cc1,"inconclusive: 29.1 µM [falling, single point]",–
COc1ccccc1-c1nnc(SCC(=O)N2CCCC2)o1,"inconclusive: 32.6 µM [activator, partial curve, poor fit]",–
Cc1ccc(NC(=S)c2ccncc2)c(C)c1,"inconclusive: 29.1 µM [falling, single point]",–
CC(C)(C)c1ccc(OCCOCCn2cnc3ccccc3c2=O)cc1,"inconclusive: 1.64 µM [falling, full curve, poor fit]",–
CCOc1ccccc1Oc1c(C)oc2cc(OC(=O)c3ccco3)ccc2c1=O,"inconclusive: 25.9 µM [falling, partial curve, poor fit]",–
O=C1CCCc2cc(S(=O)(=O)N3CCCC(C(=O)NCc4ccccc4)C3)ccc2N1 (stereo not drawn),"inconclusive: 7.31 µM [falling, partial curve]",–
CCc1ccccc1NC(=O)CN1CCN(C(=O)CNC(=O)c2ccc(-c3ccccc3)cc2)CC1,"inconclusive: 23.1 µM [falling, partial curve, poor fit]",–
CCc1nnc(NC(=O)CCC(=O)N2CCN(CCOc3ccc(C)cc3)CC2)s1,active: 20.6 µM,–

# An excerpt of these results, tab-delimited:
SMILES	Potency	activity change, negative = inhibition
O=S(=O)(NCCSc1ccccc1)c1ccc(F)cc1	inconclusive: 29.1 µM [falling, single point]	–
CCn1cc(C(=O)N2CCN(c3ccc(C)cc3)C(C)C2)c(=O)c2cc(S(=O)(=O)N3CCCC3)ccc21 (stereo not drawn)	inconclusive: 13 µM [falling, single point]	–
O=C(N/N=C\c1cc(Br)ccc1O)c1ccc(S(=O)(=O)N2CCCCC2)cc1	inconclusive: 29.1 µM [falling, single point]	–

# Continuation:

SMILES,Potency,"activity change, negative = inhibition"
Cc1ccc(-c2cnc3cc(C)nn3c2)cc1,"inconclusive: 8.2 µM [activator, partial curve]",–
CCOc1ccc(NC(=O)CSc2ccc(-c3ccco3)nn2)cc1,"inconclusive: 4.11 µM [activator, partial curve, poor fit]",–
c1ccc(Sc2ncnc3c2oc2ccccc23)nc1,"inconclusive: 2.59 µM [activator, full curve, poor fit]",–
Cc1cccc(N2CCN(C(=O)c3ccc4nc(N5CCCCC5)sc4c3)CC2)c1C,–,inactive: 1.77%
Cc1ccc(/C=C/C(=O)OCn2nnc3ccccc3c2=O)o1,–,inactive: -16.5%
CC(=O)C1=C(C)N(Cc2ccccc2)C(=O)N[C@H]1c1cccc(F)c1,–,inactive: 14.7%
S=C(Nc1ccc(N2CCOCC2)cc1)Nc1ccc2snnc2c1,–,inactive: 10.7%
Cc1cccc(OCC(=O)O/N=C(\N)Cc2ccc([N+](=O)[O-])cc2)c1,"inconclusive: 16.4 µM [falling, partial curve, poor fit]",–
Cc1ccc(S(=O)(=O)N(C)C)cc1NC(=O)C1CCCN(C(=O)c2ccc(Cl)cc2)C1 (stereo not drawn),"inconclusive: 9.2 µM [falling, partial curve]",–
Cc1cc(C)c2c(=O)n(CC(=O)NCCCN3CCN(c4ccccc4F)CC3)sc2n1,–,inactive: 0.591%
COc1cccc(C(=O)O/N=C(\N)c2ccncc2)c1,"inconclusive: 16.4 µM [activator, partial curve]",–
Cc1cc(C(=O)CN2C(=O)C(=O)N(Cc3ccccc3)C2=O)c(C)n1-c1ccccc1F,"inconclusive: 29.1 µM [activator, single point]",–
COc1ccc(CNS(=O)(=O)NCc2ccc(OC)c(OC)c2)cc1,"inconclusive: 14.6 µM [falling, partial curve, poor fit]",–
COc1cccc(/C=C/C(=O)OCC(=O)c2ccc(S(=O)(=O)N3CCCCC3)cc2)c1OC,"inconclusive: 29.1 µM [falling, single point]",–
Cc1ccccc1NC(=O)Cn1cc(C(=O)c2cccs2)c2ccccc21,"inconclusive: 25.9 µM [falling, partial curve, poor fit]",–
O=C(Cn1ccc2cc(S(=O)(=O)N3CCCCC3)ccc21)NCCc1ccccc1Cl,"inconclusive: 10.3 µM [falling, partial curve, poor fit]",–
CCC(C)(C)NC(=O)c1sccc1Oc1ccc(F)cc1[N+](=O)[O-],"inconclusive: 29.1 µM [falling, single point]",–
NNC(=O)CSc1nc(-c2ccccc2)nc2c1CCCC2,"inconclusive: 32.6 µM [falling, single point]",–
CCCCC(=O)OC1=C(C(=O)c2ccccc2)N(CCC)S(=O)(=O)c2ccccc21,"inconclusive: 20.6 µM [falling, single point]",–
O=C(COC(=O)c1ccccc1Cc1ccccc1)Nc1ccc(SC(F)F)cc1,"inconclusive: 7.31 µM [activator, partial curve]",–
COc1ccc(OC)c(NC(=O)CSc2ccc(-c3cccnc3)nn2)c1,"inconclusive: 4.61 µM [falling, partial curve, poor fit]",–
